Experimental data from patent US8268821B2, “Methods and compositions” (priority 2003, dated 2012).
For at least one compound, name, drawing or mass did not settle the structure.

Tested on: cancer-related neuropathic pain
Experiment: Open label dose escalation study of flupirtine, case studies JE and RM

SMILES: CCOC(=O)Nc1ccc(NCc2ccc(F)cc2)nc1N [flupirtine]
- neuropathic pain symptoms (JE Day 18 at home, flupirtine 100 mg QID, Oxycontin 20 mg BD): no neuropathic pain symptoms
- neuropathic pain symptoms (JE last follow up on day 44, Oxycontin 20 mg bd): no neuropathic pain symptoms
